Test results taken from patent US6759385B1, “Methods to treat undesirable immune responses” (Regents of the University of Minnesota, priority 1997, dated 2004).
Some entries share one result that the patent states for a list of compounds.

By UniProt entry, the sequences of proteins in these tests, tags left out. Where a name states a change or a piece, a line headed by the entry shows the natural chain unless it says otherwise.
UniProt P02708: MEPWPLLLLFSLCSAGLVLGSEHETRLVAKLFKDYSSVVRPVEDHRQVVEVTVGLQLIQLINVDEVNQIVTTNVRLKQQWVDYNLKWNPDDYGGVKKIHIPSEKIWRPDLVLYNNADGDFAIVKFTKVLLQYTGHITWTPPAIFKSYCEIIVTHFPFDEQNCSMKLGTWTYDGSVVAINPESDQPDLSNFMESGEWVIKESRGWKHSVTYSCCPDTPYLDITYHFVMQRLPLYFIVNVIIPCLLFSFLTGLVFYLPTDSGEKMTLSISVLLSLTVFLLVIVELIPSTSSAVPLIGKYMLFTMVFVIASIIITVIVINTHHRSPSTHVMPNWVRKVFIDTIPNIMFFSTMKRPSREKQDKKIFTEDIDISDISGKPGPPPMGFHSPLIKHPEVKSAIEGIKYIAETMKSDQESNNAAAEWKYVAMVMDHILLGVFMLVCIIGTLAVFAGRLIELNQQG

System: CD4+ cells of MG patients
Assay: Response of CD4+ T cells of MG patients to synthetic human AChR peptides
Format: cell-based
Excerpt: Several studies have identified sequences of the human AChR α subunit recognized by T cells in MG patients. To determine whether the CD4^+ cells recognizing those immunodominant and/or universal epitope sequences can drive the synthesis of pathogenic anti-AChR antibodies, and how the ability of the different sequence regions of the AChR to interact with different HLA DR molecules correlates with the presence of universal CD4^+ epitopes, synthetic peptides based on the amino acid sequence of the human α subunit of AChR (Noda et al., Nature, 305, 818 (1983); Schoepfer et al., FEBS Lett., 226, 235 (1981)) were prepared. The peptides were approximately 20 residues long, a length that compares with that of naturally processed class II-restricted epitopes, which are 9-14 residues. […] The peptides overlapped by 5-10 residues to reduce the risk of missing epitopes “broken” between peptides.
The response to individual overlapping synthetic AChR peptides spanning the sequence of each AChR subunit, of unselected blood […], and of CD4^+ T cell lines enriched with AChR-specific cells by culture in vitro with ACHR antigens, was tested. The use of those two cell populations has different advantages and limitations. AChR-specific CD4+ lines have strong, consistent responses to individual peptides that allow a clear-cut assessment of their epitope repertoire. However, they may have an epitope repertoire different from that of the original CD4^+ population due to biased clonal propagation in vitro. Also, denatured forms of the antigen such as synthetic and biosynthetic peptides, which are commonly used for propagation of CD4+ cells specific for rare antigens, may be processed into peptide epitopes different from those obtained from processing of the native antigen in vivo and may expand […] irrelevant for the immune process in vivo. The use of unselected T cells or CD4+ T cells from the blood of MG patients avoids the risk of detecting a biased repertoire due to the selective clonal loss or enrichment, but, because of the low frequency of antigen-specific CD4^+ cells, reliable testing of nonselected blood CD4+ T cells is not always successful, especially when assessing the response to individual epitopes.
Due to the “orthogonal” advantages and shortcomings of unselected blood CD4+ cells and of AChR-specific CD4^+ lines, it was from the combined results of those two approaches that many AChR sequence regions forming CD4^+ epitopes could be confidently identified. The response to the individual AChR peptides of the anti-AChR cell lines was tested by a proliferation assay, and that of unselected blood CD4^+ cells by proliferation and enzyme-linked immunospot (ELISPOT) assays. […] These different approaches have given consistent and complementary results.

Substance	MG patients whose CD4+ cells recognize the peptide
α403-421: synthetic sequence of the human AChR α subunit (AMVMDHILLGVFMLVCIIG; UniProt P02708 423-441, looked up, fragment)	≥ 50%
α63-80: synthetic sequence of the human AChR α subunit (YNLKWNPDDYGGVKKIHI; UniProt P02708 83-100, looked up, fragment)	≥ 50%
α135-154: synthetic sequence of the human AChR α subunit (FPFDEQNCSMKLGTWTYDGS; UniProt P02708 155-174, looked up, fragment)	≥ 50%
α1-14: synthetic sequence of the human AChR α subunit, residues 1-14 (SEHETRLVAKLFKD; UniProt P02708 21-34, looked up, fragment)	≥ 50%
α101-120: synthetic sequence of the human AChR α subunit (AIVKFTKVLLQYTGHITWTP; UniProt P02708 121-140, looked up, fragment)	≥ 50%
α320-337: synthetic sequence of the human AChR α subunit (IPNIMFFSTMKRPSREKQ; UniProt P02708 340-357, looked up, fragment)	≥ 50%
α118-137: synthetic sequence of the human AChR α subunit (WTPPAIFKSYCEIIVTHFPF; UniProt P02708 138-157, looked up, fragment)	≥ 50%
